These are yes or no findings as the source states them, for the method shown. Binding can be weak; no strength is given.

For the test, the target named is recombinant CLEC-2 carbohydrate-recognition domain (CRD). The experiment in a line: SPR; BIACORE T-200; recombinant CLEC-2 CRD immobilised through amine coupling to a CM5 sensor chip; (glyco)peptides 0, 3.125, 6.25, 12.5, 25, 50, 100 and 200 μM injected at 30 μl/min; both purified.

On to SSLEDSVTPTK (disialyl-core 1 O-glycan on T105: NeuAcα2-3Galβ1-3(NeuAcα2–6)GalNAcα1-O-T105) [O-glycosylated hDectin-1 peptide S98-K108 with disialyl-core 1 O-glycan on T105], for which the binding result was “binds”.

(Values after publication PMC9788829.)
